This experiment addresses TEAD1 (human (endogenous in HGC27)) (UniProt P28347). The experiment is described as follows: co-IP; HGC27 cells; 500 ug protein with 2 ug primary antibody at 4 C for 4 h, Protein A/G PLUS agarose beads overnight at 4 C; detected by Western blot. On the technique in general: In western blotting, separated proteins are transferred to a membrane and probed.

Sequences of proteins named here, by UniProt entry; tags and fusion partners are left off.
UniProt P28347: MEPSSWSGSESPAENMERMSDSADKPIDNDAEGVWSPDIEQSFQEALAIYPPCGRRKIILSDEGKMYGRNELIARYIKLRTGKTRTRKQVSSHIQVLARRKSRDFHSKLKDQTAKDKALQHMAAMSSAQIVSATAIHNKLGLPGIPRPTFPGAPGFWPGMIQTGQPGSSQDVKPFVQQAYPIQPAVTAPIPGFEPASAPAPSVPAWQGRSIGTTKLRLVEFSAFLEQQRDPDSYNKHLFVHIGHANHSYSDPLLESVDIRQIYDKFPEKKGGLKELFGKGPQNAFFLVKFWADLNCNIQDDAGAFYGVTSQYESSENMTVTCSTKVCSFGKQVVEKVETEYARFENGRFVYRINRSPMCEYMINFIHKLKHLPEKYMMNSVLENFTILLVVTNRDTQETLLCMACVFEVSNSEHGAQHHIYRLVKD

For one molecule, binding results are on record in PMC7898745.

Results are given in words; binding and its absence hold for the method and conditions named. In cells and extracts the contact can be indirect. Some entries that bind do so weakly or less than the wild type.

B1: SNAI2 (protein, UniProt O43623 1-268)
chain: MPRSFLVKKHFNASKKPNYSELDTHTVIISPYLYESYSMPVIPQPEILSSGAYSPITVWTTAAPFHAQLPNGLSPLSGYSSSLGRVSPPPPSDTSSKDHSGSESPISDEEERLQSKLSDPHAIEAEKFQCNLCNKTYSTFSGLAKHKQLHCDAQSRKSFSCKYCDKEYVSLGALKMHIRTHTLPCVCKICGKAFSRPWLLQGHIRTHTGEKPFSCPHCNRAFADRSNLRAHLQTHSDVKKYQCKNCSKTFSRMSLLHKHEESGCCVAH
Turning to B1, the binding result is recorded as “binds”.
